Laboratory results published in publication PMC11912475 (Journal of Medicinal Chemistry, 2025).

Test system: Glutamate, NMDA, Phencyclidine binding site
Assay: Radioligand displacement binding assay, [3H]TCP, NMDA
Parameters: species or system Wistar rat

In the case of `CCC(=O)C(C[C@H](C)N(C)C)(c1ccccc1)c1ccccc1` [(S)-methadone, 6-(Dimethylamino)-4,4-diphenylheptan-3-one, reference compound], the “% inhibition of binding, NMDA” value (1 μM) is reported as 23% and the “% inhibition of binding, NMDA” value (10 μM) is reported as 68%.
